Data as given in PubChem BioAssay AID1224826 (NIAID, 2016).
Here is one part, drawn at random, of about 17,000 deposited reagents. About 1,110 of them (6.6%) were called active. 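Active means lowered or raised reporter signal; replicate intensities are raw and not normalised per plate.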 The numbers tell different reagents against one gene apart. No sequences are given here.

- Purpose: 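Knock-downs that raise or lower Tnf reporter signal after endotoxin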 (primary screen)
- Cells: RAW264.7 G9 macrophages from mouse bearing reporters for p65 (GFP) and the Tnf promoter (mCherry)
- Reagents: siRNA pool against mouse genes, 100 nM
- Duration: 16 h of LPS stimulation, after 2 days of siRNA transfection
- Treatment: bacterial lipopolysaccharide (Salmonella minnesota R595), 10 ng/ml
- Measurement: 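Nuclear mCherry signal of the Tnf promoter reporter measured by imaging after background removal, scaled to each plate median and turned into robust z-scores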
- Scale: Tnf reporter robust z-score: higher = stronger Tnf promoter reporter signal after LPS; Tnf reporter intensity: higher = stronger Tnf promoter reporter signal
- Call rule: 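Called active when robust z-score is at most -1.3, matching the median of the Tlr4 knock-down control, or over 3; control wells and wells with under 50 cells never active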
- Meaning of the calls: active = Tnf reporter clearly lowered or raised; inactive = no clear change in Tnf reporter

no.	gene symbol	reagent no.	Tnf reporter robust z-score	fewer than 50 cells in well	Tnf reporter intensity, replicate 1	Tnf reporter intensity, replicate 2	call
1	Bcat1 (branched chain aminotransferase 1, cytosolic)	1	1.72	enough cells in well	228	257	inactive
2	Pdgfb (platelet derived growth factor subunit B)	1	-2.19	enough cells in well	71.6	51.1	active
3	H1f9 (H1.9 linker histone)	1	-0.46	enough cells in well	265	100	inactive
4	Gpr157 (G protein-coupled receptor 157)	1	0.87	enough cells in well	279	204	inactive
5	Dnai4 (dynein axonemal intermediate chain 4)	1	0.3	enough cells in well	208	250	inactive
6	Ampd3 (adenosine monophosphate deaminase 3)	1	1.7	enough cells in well	267	263	inactive
7	Rps14 (ribosomal protein S14)	1	-0.53	enough cells in well	93.9	116	inactive
8	Or5p57 (olfactory receptor family 5 subfamily P member 57)	1		fewer than 50 cells per well; well left out of calls	71.4	88.9	inactive
9	Bcl11b (B cell leukemia/lymphoma 11B)	1		fewer than 50 cells per well; well left out of calls	82	69.8	inactive
10	Cyfip2 (cytoplasmic FMR1 interacting protein 2)	1	-0.7	enough cells in well	172	162	inactive
11	Mpv17 (MpV17 mitochondrial inner membrane protein)	1	-0.86	enough cells in well	140	86.6	inactive
12	Nap1l5 (nucleosome assembly protein 1-like 5)	1	0.33	enough cells in well	207	143	inactive
13	Sap18 (Sin3A-associated polypeptide 18)	1	-0.13	enough cells in well	302	192	inactive
14	Mcam (melanoma cell adhesion molecule)	1	0	enough cells in well	258	209	inactive
15	Orm1 (orosomucoid 1)	1	-0.24	enough cells in well	171	88.2	inactive
16	Or2y3 (olfactory receptor family 2 subfamily Y member 3)	1	0.32	enough cells in well	226	116	inactive
17	Pno1 (partner of NOB1 homolog)	1		fewer than 50 cells per well; well left out of calls	160	58	inactive
18	Wsb2 (WD repeat and SOCS box-containing 2)	1	2.64	enough cells in well	251	217	inactive
19	Cst13 (cystatin 13)	1		fewer than 50 cells per well; well left out of calls	164	92.9	inactive
20	Nfkbil1	1	-0.22	enough cells in well	236	158	inactive
21	Ppp1r14bl (protein phosphatase 1, regulatory inhibitor subunit 14B like)	1		fewer than 50 cells per well; well left out of calls	86.6	29.2	inactive
22	Mipep (mitochondrial intermediate peptidase)	1	0.27	enough cells in well	311	205	inactive
23	Fes (Fes proto-oncogene, tyrosine kinase)	1	1.58	enough cells in well	315	229	inactive
24	Tgtp1 (T cell specific GTPase 1)	1		fewer than 50 cells per well; well left out of calls	159	93.9	inactive
25	Phf5a (PHD finger protein 5A)	1		fewer than 50 cells per well; well left out of calls	48.1	47.7	inactive
26	4933427D06Rik (RIKEN cDNA 4933427D06 gene)	1	1.36	enough cells in well	231	240	inactive
27	4931406H21Rik (RIKEN cDNA 4931406H21 gene)	1		fewer than 50 cells per well; well left out of calls	126	38	inactive
28	Scgb1a1 (secretoglobin, family 1A, member 1)	1	-1.57	enough cells in well	149	86.6	active
29	Gucy2f (guanylate cyclase 2f)	1	-1.04	enough cells in well	130	100	inactive
30	Ms4a6d (membrane-spanning 4-domains, subfamily A, member 6D)	1	-0.35	enough cells in well	203	91.9	inactive
31	Ms4a6d (membrane-spanning 4-domains, subfamily A, member 6D)	2	0.64	enough cells in well	211	165	inactive
32	Csl (citrate synthase like)	1	-0.52	enough cells in well	145	82.6	inactive
33	Nipbl (NIPBL cohesin loading factor)	1	1.56	enough cells in well	261	75.4	inactive
34	Nipbl (NIPBL cohesin loading factor)	2		fewer than 50 cells per well; well left out of calls	248	228	inactive
35	Tead2 (TEA domain family member 2)	1		fewer than 50 cells per well; well left out of calls	47.6	38.7	inactive
36	Nt5dc3 (5'-nucleotidase domain containing 3)	1	-0.04	enough cells in well	90.5	192	inactive
37	Klhl2 (kelch-like 2, Mayven)	1	-1.14	enough cells in well	126	32.7	inactive
38	Nfu1 (NFU1 iron-sulfur cluster scaffold)	1	1.22	enough cells in well	458	157	inactive

Reformatted: results already given
gene symbol | reagent no. | Tnf reporter robust z-score | fewer than 50 cells in well | Tnf reporter intensity, replicate 1 | Tnf reporter intensity, replicate 2 | call
Ppp1r14bl (protein phosphatase 1, regulatory inhibitor subunit 14B like) | 1 | – | fewer than 50 cells per well; well left out of calls | 86.6 | 29.2 | inactive
Mipep (mitochondrial intermediate peptidase) | 1 | 0.27 | enough cells in well | 311 | 205 | inactive
Fes (Fes proto-oncogene, tyrosine kinase) | 1 | 1.58 | enough cells in well | 315 | 229 | inactive
Tgtp1 (T cell specific GTPase 1) | 1 | – | fewer than 50 cells per well; well left out of calls | 159 | 93.9 | inactive

Further records follow.
no.	gene symbol	reagent no.	Tnf reporter robust z-score	fewer than 50 cells in well	Tnf reporter intensity, replicate 1	Tnf reporter intensity, replicate 2	call
39	2610524H06Rik (RIKEN cDNA 2610524H06 gene)	1		fewer than 50 cells per well; well left out of calls	262	60.5	inactive
40	Rpl13 (ribosomal protein L13)	1	-0.98	enough cells in well	90.9	93	inactive
41	Tm2d3 (TM2 domain containing 3)	1	1.62	enough cells in well	383	126	inactive
42	Pcdhga9 (protocadherin gamma subfamily A, 9)	1		fewer than 50 cells per well; well left out of calls	107	91.9	inactive
43	Memo1 (mediator of cell motility 1)	1	2.23	enough cells in well	416	147	inactive
44	Gprc5a (G protein-coupled receptor, family C, group 5, member A)	1	0.31	enough cells in well	412	180	inactive
45	Krtap13-21 (keratin associated protein 13-21)	1		fewer than 50 cells per well; well left out of calls	371	48.2	inactive
46	Pcdhgb2 (protocadherin gamma subfamily B, 2)	1	1.48	enough cells in well	188	230	inactive
47	Creb3l1 (cAMP responsive element binding protein 3-like 1)	1	-1.29	enough cells in well	121	81.6	inactive
48	Kif23 (kinesin family member 23)	1	-1.31	enough cells in well	149	72.4	active
49	Vmn2r129 (vomeronasal 2, receptor 129)	1	0.55	enough cells in well	143	60.6	inactive
50	Vmn2r129 (vomeronasal 2, receptor 129)	2	-0.24	enough cells in well	118	75	inactive
51	Fli1 (Fli1 proto-oncogene, ETS transcription factor)	1	-0.57	enough cells in well	249	152	inactive
52	Ror1 (receptor tyrosine kinase-like orphan receptor 1)	1	-0.07	enough cells in well	177	170	inactive
53	Chil3 (chitinase-like 3)	1	-0.57	enough cells in well	121	159	inactive
54	Bmp8a (bone morphogenetic protein 8a)	1	-0.81	enough cells in well	112	109	inactive
55	Sv2b (synaptic vesicle glycoprotein 2b)	1	1.16	enough cells in well	149	85.7	inactive
56	Tap1 (transporter 1, ATP-binding cassette, sub-family B (MDR/TAP))	1	-0.76	enough cells in well	204	80	inactive
57	Ybey (ybeY metallopeptidase)	1	3.28	enough cells in well	349	335	active
58	Zpld1 (zona pellucida like domain containing 1)	1	1.52	enough cells in well	273	285	inactive
